Test results published in patent US10802031B2, “Marker for determining diabetic nephropathy” (TOHOKU UNIVERSITY, priority 2015, dated 2020).

Assay: Urine phenyl sulfate salt (PS) concentration in test subjects grouped by ACR
Description: Plasma samples and urine samples were collected from 316 test subjects (including 143 males and 173 females) and the test subjects were tested for gender and eleven items (a phenyl sulfate salt [PS] concentration, a heart rate, a plasma glucose concentration, a hemoglobin A1c [HbA1c] value, a urine pH value, an estimated glomerular filtration rate [eGFR], a urinary albumin/creatinine ratio [ACR], a triglyceride [TG] level, a uric acid [UA] level, a blood urea nitrogen [BUN] level, and a pulse wave velocity [PWV] value). Multiple regression analysis was performed with the PS concentration used as a dependent function and with twelve values, that is, test values of the other ten items excluding the PS concentration and values corresponding to the age and the gender, used as independent variables. As a result, the PS concentration was more highly correlated with ACR corresponding to an index of early diabetic nephropathy than a plasma glucose concentration (p=0.343) and the HbA1c value (p=0.351) corresponding to indexes of diabetes, the eGFR (p=0.512) and the BUN level (p=0.046) corresponding to indexes of renal function, the TG level (p=0.368) corresponding to an index of liver function, the UA level (p=0.524) corresponding to an index of gout, or the PWV value (0.213) corresponding to an index of arteriosclerosis.
Joint Committee on Diabetic Nephropathy prescribed, in December 2013, a novel early diagnostic criterion that “a patient showing ACR of 30 to 299 mg/g is diagnosed with early diabetic nephropathy”. Therefore, the test subjects were classified into groups respectively showing ACR of 0 to less than 30 (mg/g) (normal albuminuria), of 30 to 299 (mg/g) (microalbuminuria), and of not less than 300 (mg/g) (overt albuminuria) (respectively designated as a pre-nephropathy group, an early nephropathy group, and an overt nephropathy group), and the correlation with the PS concentration was checked (Table 1).

In the case of O=S(=O)(O)Oc1ccccc1 [PS, phenyl sulfate], the “Urine PS concentration” value (ACR 0 to less than 30 mg/g (pre-nephropathy group), 182 test subjects) is reported as 53.3 nmol/mL, the “Urine PS concentration” value (ACR 30 to 299 mg/g (early nephropathy group), 89 test subjects) is reported as 40.1 nmol/mL and the “Urine PS concentration” value (ACR not less than 300 mg/g (overt nephropathy group), 44 test subjects) is reported as 91.0*** nmol/mL.

Where a name gives a salt, the structure may show the parent alone. Marks after values point to notes of the source that are not given here.
